From PMC5845145
No constants are given. Whether binding was seen depends on the method and setting. In cells and extracts the contact can be indirect. Some entries that bind do so weakly or less than the wild type.

By UniProt entry, the sequences of proteins in these tests, tags left out. Residues count along the entry.
UniProt P08962: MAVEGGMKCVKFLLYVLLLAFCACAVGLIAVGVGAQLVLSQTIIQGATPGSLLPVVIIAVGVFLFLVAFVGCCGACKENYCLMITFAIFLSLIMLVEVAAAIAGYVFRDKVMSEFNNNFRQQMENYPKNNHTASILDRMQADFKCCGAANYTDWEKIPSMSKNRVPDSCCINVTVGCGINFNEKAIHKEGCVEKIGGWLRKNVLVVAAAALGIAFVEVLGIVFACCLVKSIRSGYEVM
UniProt P01033, residues 24-207: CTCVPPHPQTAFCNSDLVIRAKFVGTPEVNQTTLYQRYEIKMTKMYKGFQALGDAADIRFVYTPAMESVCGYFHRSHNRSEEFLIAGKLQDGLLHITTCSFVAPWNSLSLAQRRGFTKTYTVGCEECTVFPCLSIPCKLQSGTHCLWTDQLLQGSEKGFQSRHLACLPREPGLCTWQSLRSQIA

Experiments:
[1] = target: CD63 (human (endogenous in glioblastoma tissue and U87MG)) (UniProt P08962); assay: proximity ligation; Duolink In Situ on organotypic spheroids and U87MG cell line-derived spheroids; data not shown
[2] = target: CD63 (human (endogenous in glioblastoma tissue and U87MG)) (UniProt P08962); assay: proximity ligation; Duolink In Situ on paraffin sections of glioblastoma biopsies; mouse anti-TIMP-1 (VT7) and rabbit anti-CD63 (HPA010088); omission of primary antibodies as negative control
[3] = target: CD63 (human (endogenous in glioblastoma tissue and U87MG)) (UniProt P08962); assay: co-IP; lysate of U87MG cell line-derived spheroids (50 mM HEPES pH 7.4, 150 mM NaCl, 10% glycerol, 1% Triton X-100, 1 mM EDTA); CD63 antibody MX-49.129.5 or isotype control on Protein G-Dynabeads overnight; immunoblot with anti-TIMP-1

Measured: binding

tissue inhibitor of metalloproteinases-1 (TIMP-1) (from UniProt P01033 24-207)
binds: all assays above
